Laboratory results from paper PMC5026473.
These are yes or no findings as the source states them, for the method shown. In cells and extracts the contact can be indirect. These calls come from enrichment with a bait or labelling near it, and not all partners need be listed.

Chains of the proteins cited; added tags and fusions are not shown.
UniProt Q03280: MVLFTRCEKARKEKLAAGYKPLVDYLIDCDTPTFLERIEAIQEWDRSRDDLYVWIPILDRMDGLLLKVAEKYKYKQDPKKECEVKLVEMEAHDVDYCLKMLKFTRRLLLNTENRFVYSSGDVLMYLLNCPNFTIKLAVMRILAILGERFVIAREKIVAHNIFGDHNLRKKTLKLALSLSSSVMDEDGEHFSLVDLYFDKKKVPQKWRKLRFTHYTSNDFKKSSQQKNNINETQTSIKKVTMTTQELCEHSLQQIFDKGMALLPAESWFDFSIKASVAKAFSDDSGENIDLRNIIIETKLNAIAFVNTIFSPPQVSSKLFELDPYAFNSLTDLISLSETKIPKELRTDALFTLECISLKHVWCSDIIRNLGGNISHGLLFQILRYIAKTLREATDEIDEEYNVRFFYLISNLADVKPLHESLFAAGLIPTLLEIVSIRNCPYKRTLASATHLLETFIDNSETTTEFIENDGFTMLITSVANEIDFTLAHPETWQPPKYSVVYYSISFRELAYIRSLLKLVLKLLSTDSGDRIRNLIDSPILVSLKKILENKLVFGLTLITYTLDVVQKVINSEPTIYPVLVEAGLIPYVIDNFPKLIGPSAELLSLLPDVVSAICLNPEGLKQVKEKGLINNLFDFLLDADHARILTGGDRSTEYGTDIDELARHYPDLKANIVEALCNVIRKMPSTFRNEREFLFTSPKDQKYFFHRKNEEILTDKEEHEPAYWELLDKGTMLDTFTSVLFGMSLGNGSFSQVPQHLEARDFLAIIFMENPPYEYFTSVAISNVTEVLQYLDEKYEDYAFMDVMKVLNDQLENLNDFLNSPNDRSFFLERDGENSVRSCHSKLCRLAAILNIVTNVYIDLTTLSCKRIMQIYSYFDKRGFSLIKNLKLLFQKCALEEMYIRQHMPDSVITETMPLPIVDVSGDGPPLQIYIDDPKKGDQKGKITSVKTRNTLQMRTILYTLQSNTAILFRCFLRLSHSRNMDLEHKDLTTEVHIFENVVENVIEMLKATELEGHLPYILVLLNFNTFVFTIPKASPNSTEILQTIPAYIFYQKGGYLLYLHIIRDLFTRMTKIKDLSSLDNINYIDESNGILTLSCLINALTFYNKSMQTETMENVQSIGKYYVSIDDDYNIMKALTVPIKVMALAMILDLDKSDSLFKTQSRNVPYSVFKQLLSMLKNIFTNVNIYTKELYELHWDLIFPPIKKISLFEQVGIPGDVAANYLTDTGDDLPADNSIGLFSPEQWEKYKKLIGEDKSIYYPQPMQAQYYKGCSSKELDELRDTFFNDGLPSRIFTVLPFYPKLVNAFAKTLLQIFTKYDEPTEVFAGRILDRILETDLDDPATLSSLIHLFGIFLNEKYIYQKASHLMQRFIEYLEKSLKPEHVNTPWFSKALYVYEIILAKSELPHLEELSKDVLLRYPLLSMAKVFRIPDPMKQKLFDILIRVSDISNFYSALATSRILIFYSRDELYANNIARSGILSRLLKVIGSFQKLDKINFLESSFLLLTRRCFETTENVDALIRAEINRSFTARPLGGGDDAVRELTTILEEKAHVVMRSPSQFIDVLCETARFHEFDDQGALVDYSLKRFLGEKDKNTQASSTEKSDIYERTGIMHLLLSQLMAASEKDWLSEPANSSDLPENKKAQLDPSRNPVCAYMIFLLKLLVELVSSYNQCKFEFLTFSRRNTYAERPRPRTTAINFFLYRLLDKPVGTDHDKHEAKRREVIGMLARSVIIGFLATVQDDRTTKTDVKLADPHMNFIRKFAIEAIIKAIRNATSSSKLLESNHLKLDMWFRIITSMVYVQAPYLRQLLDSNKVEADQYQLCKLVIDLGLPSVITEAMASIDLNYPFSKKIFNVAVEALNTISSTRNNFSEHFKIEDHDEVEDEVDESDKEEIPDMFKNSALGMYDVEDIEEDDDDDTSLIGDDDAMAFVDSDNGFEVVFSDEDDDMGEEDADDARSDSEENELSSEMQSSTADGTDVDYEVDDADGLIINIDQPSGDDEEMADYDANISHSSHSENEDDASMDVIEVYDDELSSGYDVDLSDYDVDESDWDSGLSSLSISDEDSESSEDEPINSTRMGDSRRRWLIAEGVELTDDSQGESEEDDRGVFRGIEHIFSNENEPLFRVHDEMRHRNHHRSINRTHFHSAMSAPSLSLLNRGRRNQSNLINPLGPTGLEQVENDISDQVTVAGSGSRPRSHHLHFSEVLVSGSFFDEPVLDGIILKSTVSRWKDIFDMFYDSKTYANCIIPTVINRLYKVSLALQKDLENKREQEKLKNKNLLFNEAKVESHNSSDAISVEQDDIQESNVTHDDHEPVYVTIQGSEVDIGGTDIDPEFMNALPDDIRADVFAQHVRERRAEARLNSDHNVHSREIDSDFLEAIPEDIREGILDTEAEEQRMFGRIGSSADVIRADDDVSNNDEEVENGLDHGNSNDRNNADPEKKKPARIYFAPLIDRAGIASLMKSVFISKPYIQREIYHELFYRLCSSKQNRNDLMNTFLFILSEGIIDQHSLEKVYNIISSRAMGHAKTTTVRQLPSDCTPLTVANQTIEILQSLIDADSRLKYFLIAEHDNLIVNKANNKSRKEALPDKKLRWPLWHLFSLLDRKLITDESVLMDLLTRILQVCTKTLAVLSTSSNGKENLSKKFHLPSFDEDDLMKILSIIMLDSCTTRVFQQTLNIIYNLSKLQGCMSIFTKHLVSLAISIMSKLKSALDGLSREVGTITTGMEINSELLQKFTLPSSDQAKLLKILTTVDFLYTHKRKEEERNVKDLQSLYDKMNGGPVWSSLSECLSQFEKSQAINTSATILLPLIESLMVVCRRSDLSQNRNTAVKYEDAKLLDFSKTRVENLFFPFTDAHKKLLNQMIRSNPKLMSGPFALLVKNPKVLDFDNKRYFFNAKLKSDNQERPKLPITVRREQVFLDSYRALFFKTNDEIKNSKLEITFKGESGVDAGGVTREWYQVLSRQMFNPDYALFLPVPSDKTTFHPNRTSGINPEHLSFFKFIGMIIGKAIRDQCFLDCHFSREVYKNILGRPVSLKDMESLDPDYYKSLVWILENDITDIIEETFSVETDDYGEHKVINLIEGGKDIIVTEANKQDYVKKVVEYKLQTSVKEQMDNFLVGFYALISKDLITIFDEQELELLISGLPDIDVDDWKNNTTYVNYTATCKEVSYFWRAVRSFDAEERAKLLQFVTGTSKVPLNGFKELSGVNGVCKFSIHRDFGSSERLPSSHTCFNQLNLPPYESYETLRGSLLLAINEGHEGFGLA
UniProt P53221: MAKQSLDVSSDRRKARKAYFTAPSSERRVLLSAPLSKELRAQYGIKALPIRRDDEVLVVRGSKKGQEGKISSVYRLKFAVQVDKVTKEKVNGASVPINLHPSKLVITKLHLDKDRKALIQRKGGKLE

Molecular target: 3×HA-tagged Tom1 (^3×HATom1) (S. cerevisiae) (UniProt Q03280)
Assay: affinity purification with mass spectrometry; cells expressing untagged Tom1 or ^3×HATom1 treated with bortezomib for 1 hr; total cell extracts adsorbed to HA resin, bound fractions analysed by mass spectrometry

binding: binds
Substance: Rpl26b (from UniProt P53221 1-127)
